Z-score data for 105 sequences are collected here from PubChem BioAssay AID1347423 (Functional Genomics Laboratory (NCATS/FGL), 2020).

Among all 52,000 sequences or so, about 210 (0.4%) were called active.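 The calls were made as follows: active = gene whose silencing raises cell survival under the drug, median off-target-corrected z-score across its silencing RNAs 2 or more; inactive = the rest.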 Some of the results follow.

The assay is described as follows: Resistance to Poly (ADP-Ribose) Polymerase inhibitor: Gene Identification via Genome-wide siRNA Screen. The conditions noted are these: mouse BRCA2 R2336H ES cells, olaparib, CellTiter-Glo viability; active compounds read high. The gist of the method:
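Genome-wide siRNA screen (3 siRNAs/gene, 20 nM) in mouse ES cells carrying hypomorphic BRCA2 R2336H; olaparib 500 nM added 48 h post-transfection, CellTiter-Glo viability 72 h later. Normalized to plate-median negative control; MAD z-scores, gene median, seed-adjusted.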
On the technique in general: ATP-based viability assays read luminescence as a measure of living cells.
Take CCGUGAACCUAAACCUGUGTT against Rhog: the z-score was inactive: 0.83.
For the sequence GGAAGACUCAGAGAUCCGATT against Atp13a, the z-score is inactive: -1.57.
As to GGUGAAAUAUGUGUAUCAGTT against Psmb9, the z-score is inactive: 0.257.
For the sequence GUUGUCCUCUUUGUCAUCATT against Olfr502, the z-score was inactive: 1.38.
For GGAAUGAUGAUGUCUCAUATT against Fnbp3, the z-score was inactive: -3.25.
Take “GCACCUCGGUCAUUUAUAUTT against G430022H21Rik”: the z-score is inactive: 0.399.
Regarding GCACCUAUUCAAUGAGAAGTT against Chrnd, the z-score is inactive: -1.57.
Consider GGCUAGAAACUUGAGUUUCTT against Prnp, for which the z-score is inactive: 1.09.
Regarding GCAUAACAAAGAGGUUGAATT against BC053071, the z-score is inactive: -0.0971.
For the sequence GCAAUACUCACCUCUUAAATT against Scamp2, the z-score is inactive: -0.88.
As to GGUAACUGGGAAUUGUGUUTT against Vti1a, the z-score was inactive: -0.171.
With “CUUCUUCUAGCCUACCUCATT against 4930415J05Rik”, the z-score was inactive: -1.83.
GCAAAUUUAGUUGACCUUGTT against Ghitm: the z-score was inactive: 0.161.
With GGAAACAGGAAAGUUAAUUTT against Fyco1 the figure was inactive: 0.388.
For GGAAGGAGAAAAACAUAAATT against Hnrpm, the z-score was inactive: -0.404.
The value for GGGCCUAUUAAUCUUGAGUTT against Klrb1b was inactive: 0.532.
With CGCAAGUGGAUUGUAAUAATT against Sema3e the figure was inactive: -0.446.
On to GCAGACUUGGGUGUCUCUUTT against BC030183, for which the z-score is inactive: -1.99.
For the sequence GGAGGAAAGGGAAGAAUUUTT against Rnf125, the z-score was inactive: -0.794.
“GGCCUCAACUAAGAACCCUTT against 2010005A06Rik”: the z-score was inactive: 0.206.
The value for GCUACGGAACCUCUAGACATT against Cbln3 was inactive: 2.24; that for GCUUAUAAUGGCAAUAUUGTT against Nvl was inactive: 0.272; that for GGCCACUUAAAUCAGAACUTT against Hoxc8 was inactive: 0.298.
With CCACAAUUUUUUCUGCCUCTT against Olfr492 the figure was inactive: 0.658; with GCACUACCUGUAUUAAACUTT against Efhd2, inactive: 0.886.
With GCCCAAGGUAACAACAAGCTT against Rtn4r, the z-score was inactive: -0.828.
The value for “CGAUUUGCAGCCCUCAUGATT against 6230427J02Rik” was inactive: -1.62.
As for “GGGCUAUGUUGUCUCAAAATT against 2210006M16Rik”, the z-score is inactive: 1.05.
Turning to GGCAGUGCCAAUGAACAAGTT against Tceb2, the z-score is inactive: 0.426.
As to GGAUGGAAUGCAUCGAUUATT against Adipor2, the z-score was inactive: 1.31.
As for CCAGGAACCAGAAAAAGAUTT against Aven, the z-score is inactive: 0.952.
With CGACAACGACAUCAUGGAATT against Sfrp2, the z-score was inactive: -0.0761.
The value for GCCUUAAGUAUUGUUACUUTT against Tnfrsf25 was inactive: -0.337.
In the case of GGUCACAAUUGCGCUAUGATT against MGC58970, the z-score is inactive: -2.65.
In the case of GGCUAAAUUCUACUUGAUATT against Ppfibp1, the z-score is inactive: 0.105.
On to GGAUUCUUGAGCAGAUAGCTT against Gbp4, for which the z-score is inactive: -0.148.
As to GGCAAUGGUUCAGAGGACUTT against Wbscr21, the z-score was inactive: -1.03.
With GGAGCAUCCCGACUACAAGTT against Sox21, the z-score is inactive: 0.0612.
For the sequence GGUUGUAGACGUAAAUGACTT against Pcdhgc3, the z-score is inactive: 1.04.
Turning to GCACUUGCUAUUAGUGUCCTT against Rhod, the z-score was inactive: 0.337.
As to “GGAAUUUCAGGAGAUACUGTT against 1110035L05Rik”, the z-score was inactive: -1.02.
As for GCAGAACGUAUUCUGAAACTT against Uap1, the z-score is inactive: -0.312.
On to GGAGCCAAGUGUACAGUCUTT against Stk19, for which the z-score is inactive: -0.31.
Regarding GGAACAAUUCUGGGUAAUUTT against Bcl2l10, the z-score is inactive: -1.53.
Turning to “GGCAACCUUUUUAAAGAAGTT against D4Bwg0951e”, the z-score was inactive: 0.365.
The value for GGUUCUGCACAUCUGAACATT against Cst3 was inactive: -1.21.
Regarding GGUCAGAGCCAAUUUCUAUTT against Kcnmb1, the z-score was inactive: -0.128.
With GGGCCUGAUUUGUCCUCACTT against Sytl1 the figure was inactive: -0.455.
GCGGACAGGACAUUGAUCUTT against Arpc3: the z-score was inactive: -0.504.
The value for GGCAGACUGCUGACAUAUGTT against Cd37 was inactive: -0.667; that for CCAUAUCCUGAAUACACCCTT against Olfr295 was inactive: 0.525.
Regarding CGAGAGUAACUUUCGUCAGTT against Dedd, the z-score was inactive: 1.14.
Take CGGACACUUUCUGUACUUATT against Mgat2: the z-score was inactive: -0.0657.
Regarding GGACCAUAUCAUUGAUAUATT against Thoc3, the z-score is inactive: -0.744.
Turning to CCCAUACUAAGGAACUGCATT against Tnfrsf12a, the z-score was inactive: 0.0381.
Consider “GGCUGCUCUUGAAAAUGAUTT against D14Ertd226e”, for which the z-score is inactive: 0.368.
As for GGACUGUUUUAGAUUACUUTT against Klra4, the z-score was inactive: -1.6.
With CCCACUUGUGGCAGUGUACTT against Stub1, the z-score was inactive: 0.958.
Regarding GGAAGUCCACAUUGCUGGUTT against Slc2a9, the z-score was inactive: 0.695.
Take GGCUGUGAGCAAUUCAUAGTT against Fbxl10: the z-score is inactive: -1.6.
With GGAGGAAGAUGACCUCAUCTT against Tslpr, the z-score is inactive: -0.315.
Consider GCUUUUCCACAUUUUAAGGTT against BC034507, for which the z-score was inactive: -5.8e-05.
For the sequence CCGACUACUUAAGUUUCCGTT against Ppp1r3c, the z-score is inactive: -0.274.
The value for GGAGGUAUGGCGGUGAUUATT against Krt2-39 was inactive: 0.631; that for GGAUACAUUGAAUCAAUGGTT against Cstad was inactive: -0.482.
In the case of GGAUGCAUGACACAGACUUTT against Olfr47, the z-score is inactive: -1.44.
Turning to GGAUGUCAAUAGCAUGUGGTT against Gpr126, the z-score was inactive: 0.163.
The value for GGCCUAAUCUCAGAAGCAUTT against Tead2 was inactive: -0.0375; that for GGUACAUCCAGCACAUGGATT against Rnf25 was inactive: -2.66.
As to CCAAGGAGACGGAAUACAGTT against Tgfb1, the z-score is inactive: -1.23.
Regarding “GGUUUUCAGCUAUCCUUGUTT against 5530601I19Rik”, the z-score is inactive: -0.0919.
GGUAAAUAGCUGUCUUGGCTT against Cerk: the z-score was inactive: 0.226.
For GCCCAUGUAUUUUUUUCUCTT against Olfr67, the z-score was inactive: -0.039.
GGUAGCUGUGAUAAAGCAUTT against Pcbd: the z-score is inactive: 0.658.
Take “GGUUCUGUAAAUUCAACUATT against 3110024A21Rik”: the z-score was inactive: -0.0253.
As to GGUCCCUAAAAGGUAAACUTT against Rai1, the z-score was inactive: 1.
As for GGAAGAGAAUCAAGAGCCATT against Lrrc10, the z-score is inactive: -1.41.
In the case of GGUAAUUGGUAGGAAGCUUTT against Olfr836, the z-score was inactive: -0.704.
As to GGUGGUUUUGAUUAAUGGGTT against Hpn, the z-score was inactive: -0.386.
For the sequence GCGCAUCUAUGAAAAAACATT against Cerk, the z-score is inactive: 1.11.
GGCAUCUCUGUACAGGAAGTT against Mst1r: the z-score is inactive: -0.0726.
GGUGUGGAGUACCGGAUAATT against Arhgdia: the z-score is inactive: -1.42.
“CGAAACGAGGAACUUUUAATT against 4921513E08Rik”: the z-score is inactive: 0.246.
Turning to GGAUGCUCUCUUUACUGACTT against Pib5pa, the z-score is inactive: -0.0139.
The value for “GAAGACUCUCCAUUGGGUGTT against 1110058A15Rik” was inactive: -0.422; that for “GCCCUCAAAUGGCUUGAACTT against 4930506D23Rik” was inactive: -0.0921.
With GGAGGCAGAGAUAACCUUUTT against Sphk1, the z-score is inactive: 0.831.
GCUCAGAUUUGCUUUAUGATT against Ube2r2: the z-score is inactive: 0.64.
With GGUUUAAUGUUAUAUACGGTT against Olfr606 the figure was inactive: -1.05; with CGAUAGCAAAGAACCUUAUTT against Mastl, inactive: 0.96; with “GGUUGGAUGCUGAAGUAGATT against 6330416L11Rik”, inactive: 1.14.
Turning to GGUGUCUCUCCAGGAUAACTT against Ctrl, the z-score is inactive: 2.22.
In the case of GCCACAGUAUAGCACAAAGTT against BC005471, the z-score was inactive: -1.43.
Turning to GGAGGUAUUAUCUGAAUUGTT against Utp14a, the z-score is inactive: -1.15.
Consider CCAAUUGACGGUUUAUGUUTT against Zfp291, for which the z-score is inactive: -1.08.
For the sequence “CGAUAAAAUCAUUGUGGGCTT against E130103I17Rik”, the z-score was inactive: 1.22.
Regarding GGCAUGAGGAUCGUUAGAUTT against Mccc1, the z-score was inactive: 1.4.
With GCCAGGGACUUGCUAUUGATT against Txln the figure was inactive: -0.691.
With GGUAGGAAAUGUUUCAUGUTT against P4ha3 the figure was inactive: 0.696.
With GCCAACGGAGUUCCCACUATT against Cited1 the figure was inactive: -0.473; with GCCUAUGUUAAAAUACUGGTT against C2a, inactive: 0.234.
CGUCCUUAUCCACAACACATT against Sertad3: the z-score is inactive: -0.354.
In the case of GGAAGGAAGCAGAGAGUUATT against Ndel1, the z-score is inactive: 1.33.
Take GGGUAGACAGAAAGCCUUUTT against Olfr111: the z-score is inactive: -0.573.
As to GGGAGUGAGUUCUGGAGUGTT against Capn2, the z-score is inactive: 0.313.
